# From PubChem BioAssay (Tox21)
# Sequences of proteins named here, by UniProt entry; tags and fusion partners are left off. A change or cut given only in a name is not applied to a line headed by its entry.
# UniProt P28223, whole entry, looked up: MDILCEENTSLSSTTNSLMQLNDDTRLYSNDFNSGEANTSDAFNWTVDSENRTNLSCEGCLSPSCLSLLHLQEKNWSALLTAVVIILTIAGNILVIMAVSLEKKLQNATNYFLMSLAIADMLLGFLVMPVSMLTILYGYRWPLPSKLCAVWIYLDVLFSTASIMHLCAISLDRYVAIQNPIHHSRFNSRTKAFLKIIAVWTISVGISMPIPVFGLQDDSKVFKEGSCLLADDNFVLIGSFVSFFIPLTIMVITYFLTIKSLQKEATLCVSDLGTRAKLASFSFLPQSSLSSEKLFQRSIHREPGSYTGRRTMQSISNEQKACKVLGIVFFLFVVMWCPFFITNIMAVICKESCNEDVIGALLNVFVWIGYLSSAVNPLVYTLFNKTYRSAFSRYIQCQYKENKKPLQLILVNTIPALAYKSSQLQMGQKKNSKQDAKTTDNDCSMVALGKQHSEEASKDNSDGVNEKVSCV
# UniProt P11229: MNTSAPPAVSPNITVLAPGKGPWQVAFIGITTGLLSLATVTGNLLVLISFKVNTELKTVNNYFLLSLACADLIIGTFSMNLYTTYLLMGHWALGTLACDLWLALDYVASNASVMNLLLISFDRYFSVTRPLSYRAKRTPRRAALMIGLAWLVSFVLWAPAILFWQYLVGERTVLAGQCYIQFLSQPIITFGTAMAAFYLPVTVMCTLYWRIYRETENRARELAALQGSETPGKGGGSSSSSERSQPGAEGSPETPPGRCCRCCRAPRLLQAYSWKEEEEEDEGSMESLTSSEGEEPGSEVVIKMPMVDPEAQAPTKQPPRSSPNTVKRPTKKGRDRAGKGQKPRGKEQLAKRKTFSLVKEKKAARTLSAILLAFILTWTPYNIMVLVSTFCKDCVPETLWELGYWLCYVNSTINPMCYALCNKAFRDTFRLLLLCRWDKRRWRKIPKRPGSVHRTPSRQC
# UniProt P14416, whole entry, looked up: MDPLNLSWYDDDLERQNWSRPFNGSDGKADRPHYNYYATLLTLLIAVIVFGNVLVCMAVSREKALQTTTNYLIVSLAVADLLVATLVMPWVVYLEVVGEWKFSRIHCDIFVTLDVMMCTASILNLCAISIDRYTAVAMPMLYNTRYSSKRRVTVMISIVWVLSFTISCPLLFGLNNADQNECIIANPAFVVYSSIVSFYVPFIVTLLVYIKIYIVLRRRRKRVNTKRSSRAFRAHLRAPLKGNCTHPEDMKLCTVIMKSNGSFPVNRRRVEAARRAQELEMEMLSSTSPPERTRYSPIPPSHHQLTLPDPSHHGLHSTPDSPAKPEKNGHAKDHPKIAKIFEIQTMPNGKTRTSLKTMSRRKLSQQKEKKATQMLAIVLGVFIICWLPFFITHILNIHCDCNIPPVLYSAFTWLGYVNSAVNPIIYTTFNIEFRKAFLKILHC
# “And” between values parts separate entries of the source, which are not always exact repeats. Equal values may be shown once. This list was built around the results that the source calls inconclusive (neither active nor inactive); the mix of calls is not that of the screen. For some of these results: Potencies of inconclusive entries are doubtful fits and often do not repeat. The source made the active and inactive calls. Unless noted, calls follow the shape of the full dose curve.
# Experiments:
# [1] = p53 small molecule agonists, cell-based qHTS assay with human liver microsomes (AID 1963577); conditions: HCT-116 p53RE-bla with human liver microsomes, ratio, 16 h; activation: at 66 µM (top of the series) unless noted; also: potency is read from the fitted curve at half-maximal effect;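 as to activation: p53 response element beta-lactamase reporter cells with liver microsomes plus NADPH; % is scaled to controls: 0 for no effect and ±100 for the full control effect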
# Outline: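 Compounds act here after metabolic activation: human liver microsomes and NADPH, both at 0.5 mg/mL final, were co-added to p53RE-bla cells. Incubation ran 16 h at 37 C, followed by LiveBLAzer detection.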
# [2] = p53 small molecule agonists, cell-based qHTS assay (AID 1963582; active = well fitted activation curve with a large enough effect in the signal ratio in the repeat runs, not every such curve was filed as active; inconclusive = weak or mixed curves; the % refers to the signal ratio; also: potency is read from the fitted curve at half-maximal effect); conditions: HCT-116 p53RE-bla reporter, beta-lactamase FRET ratio, 16 h; activation: at 66 µM (top of the series) unless noted
# Outline: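 p53RE-bla beta-lactamase reporter cells rested 5 h at 37 C/5% CO2, then received compounds in DMSO by pin transfer and were incubated 16 h at 37 C. LiveBLAzer B/G FRET substrate was loaded for 2 h at room temperature before fluorescence reading.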
# [3] = molecular target: 5-hydroxytryptamine receptor 2A (Homo sapiens) (UniProt P28223); experiment: 5-hydroxytryptamine receptor 2A (HTR2A) small molecule antagonists, cell-based qHTS assay (AID 1963586); also: nearly all actives have a fitted effect of over 45% in size; also: potency is read from the fitted curve at half-maximal effect
# Outline: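 Antagonist-mode intracellular calcium assay: DOI (4 nM) added after 5 min compound pre-incubation at room temperature to dye-loaded HTR2A-CHO cells. Fluorescence followed for 3 min, sampled every second.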
# [4] = molecular target: Muscarinic acetylcholine receptor M1 (Homo sapiens) (UniProt P11229); experiment: Cholinergic receptor muscarinic 1 (CHRM1) small molecule antagonists, cell-based qHTS assay (AID 1963588); also: nearly all actives have a fitted effect of over 40% in size; also: potency is read from the fitted curve at half-maximal effect
# Outline: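 CHRM1-CHO calcium-flux assay, antagonist mode. Cells were seeded 18 h, dye-loaded 1 h at 37 C and given compound for 5 min at RT, then acetylcholine was added at 50nM. FDSS fluorescence was read 3 min; 15 concentrations, three runs.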
# [5] = cAMP Responsive Elements (CRE) small molecule antagonists, cell-based qHTS assay (AID 1963591; active = well fitted inhibition curve with a large enough effect in the signal ratio in the repeat runs, not every such curve was filed as active; inconclusive = weak or mixed curves, or effect the other way; the % refers to the signal ratio; also: potency is read from the fitted curve at half-maximal effect; as to activity change, negative = inhibition: % is scaled to controls: 0 for no effect and ±100 for the full control effect); conditions: CRE-bla HEK293T, beta-lactamase FRET ratio
# Outline: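 CRE-bla HEK293T cells were plated 18 h at 37 °C/5% CO2, pinned with compound in DMSO, then stimulated with NKH477 at 0.25 uM final for 3 h. LiveBLAzer B/G FRET substrate was added and plates incubated 2 h at room temperature.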
# [6] = molecular target: Beta-2 adrenergic receptor (Homo sapiens) (UniProt P07550); experiment: Adrenergic beta2 receptor (ADRB2) small molecule antagonists, cell-based qHTS assay (AID 1963592); conditions: CHO-ADRB2 cells, isoproterenol-stimulated cAMP HTRF ratio, 0.5 h; activity change, negative = inhibition: at 92.4 µM (top of the series) unless noted; also: % is scaled to controls: 0 for no effect and ±100 for the full control effect; nearly all actives have a fitted effect of over 50% in size
# Outline: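 Cells (CHO, stable ADRB2 overexpression) incubated 18-20hr at 37C; compounds added from DMSO; agonist mix (1nM isoproterenol, 100uM IBMX, 25uM Ro-20-1724) added; 0.5hr RT; d2-cAMP and anti-cAMP-cryptate added; 1hr RT; 665/615 nm read.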
# [7] = molecular target: Beta-2 adrenergic receptor (Homo sapiens) (UniProt P07550); experiment: Adrenergic beta2 receptor (ADRB2) small molecule agonists, cell-based qHTS assay (AID 1963593); conditions: CHO-ADRB2 cells, cAMP HTRF, 30 min; also: potency is read from the fitted curve at half-maximal effect;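 as to activation: CHO cells stably overexpressing human ADRB2; % is scaled to controls: 0 for no effect and ±100 for the full control effect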
# Outline: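 CHO cells stably over-expressing ADRB2 were plated overnight at 37C, then dosed with compounds plus a stimulation mix containing 100uM IBMX and 25uM Ro-20-1724 for 0.5hr at room temperature. cAMP was measured by HTRF competition, 1hr.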
# [8] = molecular target: D(2) dopamine receptor (Homo sapiens) (UniProt P14416); experiment: Dopamine D2 receptor (DRD2) small molecule antagonists, cell-based qHTS assay (AID 1963595; active = well fitted inhibition curve with a large enough effect in the signal ratio in the repeat runs, with a control signal flat; inconclusive = weak or mixed curves, or effect the other way; the % refers to the signal ratio; also: potency is read from the fitted curve at half-maximal effect; as to activity change, negative = inhibition: % is scaled to controls: 0 for no effect and ±100 for the full control effect); conditions: HEK293-DRD2 cAMP HTRF antagonist mode; activity change, negative = inhibition: at 92.4 µM (top of the series) unless noted
# Outline: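 HEK293 cells stably expressing DRD2 were preincubated with 0.1 mM Ro20-1724, then with compound for 10 min at room temperature. Cells were stimulated with 200 nM NKH477 plus 12 nM quinpirole for 30 min, and cAMP was read by HTRF.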
# [9] = molecular target: 5-hydroxytryptamine receptor 2A (Homo sapiens) (UniProt P28223); experiment: 5-hydroxytryptamine receptor 2A (HTR2A) small molecule agonists, cell-based qHTS assay (AID 1963587); conditions: HTR2A-CHO cells, calcium flux fluorescence, agonist mode; activation: at 76.8 µM (top of the series); also: potency is read from the fitted curve at half-maximal effect; nearly all actives have a fitted effect of over 30% in size
# Outline: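 CHO cells stably expressing human HTR2A, plated 18 h, loaded with calcium dye 1 h at 37 C. Agonist mode: compounds added and intracellular calcium fluorescence recorded kinetically for 2 min at 1 sec intervals.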
# [10] = cAMP Responsive Elements (CRE) small molecule agonists, cell-based qHTS assay (AID 1963590); conditions: CRE-bla HEK293T, beta-lactamase FRET ratio, 3 h; activation: at 92.4 µM (top of the series) unless noted; also: potency is read from the fitted curve at half-maximal effect
# Outline: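 CRE-bla HEK 293T cells in DMEM with 10% dialyzed FBS, NEAA, pyruvate and 25 mM HEPES were plated 18 h at 37 C/5% CO2, then exposed to compounds in DMSO for 3 h before LiveBLAzer B/G FRET substrate addition.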
# [11] = molecular target: D(2) dopamine receptor (Homo sapiens) (UniProt P14416); experiment: Dopamine D2 receptor (DRD2) small molecule agonists, cell-based qHTS assay (AID 1963594); conditions: HEK293-DRD2 cAMP HTRF, agonist mode, 30 min; activation: at 92.4 µM (top of the series) unless noted; also: % is scaled to controls: 0 for no effect and ±100 for the full control effect; nearly all actives have a fitted effect of over 35% in size
# Outline: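 HEK293 cells stably expressing human DRD2, pre-treated with PDE inhibitor Ro20-1724 (0.1 mM final) and compound 10 min at room temperature, then stimulated with NKH477 (200nM […]) for 30 min. cAMP read by HTRF (665/620 nm).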
# [12] = activity change, negative = inhibition: at 92.4 µM (top of the series) unless noted
# [13] = activation: at 92.4 µM (top of the series) unless noted
smiles,measurement,setting,value
C[C@]12CCC(=O)C=C1CC[C@@H]1[C@@H]2CC[C@]2(C)C(=O)CC[C@@H]12,Potency,[1],"inconclusive: 51.3 µM [rising, single point]"
same,Potency,[2],"inconclusive: 40.1 µM [rising, partial curve]"
same,Potency,[3],"inconclusive: 0.0012 µM [inhibitor, full curve, poor fit]"
same,Potency,[4],"inconclusive: 18.5 µM [inhibitor, partial curve, poor fit]"
same,Potency,[5]; [12],"inconclusive: 42.5 µM [activator] and inconclusive: 34.4 µM [fluorescent, partial curve, poor fit] and inconclusive: 26.6 µM [activator]"
same,"activity change, negative = inhibition",[6],inconclusive: 4.64%
same,Potency,[7]; [13],"inconclusive: 0.239 µM [inhibitor, full curve, poor fit]"
same,"activity change, negative = inhibition",[8],inconclusive: -8.62%
C[C@H]1CCCC(=O)CCC/C=C/c2cc(O)cc(O)c2C(=O)O1,Potency,[1],inactive
same,Potency,[2],"inconclusive: 13.9 µM [activator, partial curve] and inconclusive: 16.8 µM [activator, single point]"
same,Potency,[3],"inconclusive: 0.287 µM [inhibitor, full curve, poor fit]"
same,Potency,[9],inconclusive: 47.2 µM [activator]
same,Potency,[10],inconclusive: 52.5 µM [fluorescent]
same,"activity change, negative = inhibition",[5]; at 42.4 µM (top of the series),inconclusive: 19.6%
same,"activity change, negative = inhibition",[5]; at 92.4 µM (top of the series),inconclusive: -6.43%
same,Potency,[7]; [13],"inconclusive: 0.209 µM [inhibitor, full curve, poor fit]"
same,activation,[7]; [13],inconclusive: -0.87% [at 42.5 µM]
CN(CCCC(=O)c1cccnc1)N=O,Potency,[1],inactive
same,Potency,[2],inactive
same,Potency,[3],inactive
same,activation,[7]; [13],inconclusive: 0.851%
Cl[C@H]1OCCO[C@@H]1Cl,Potency,[1],inactive
same,"activity change, negative = inhibition",[5]; [12],inconclusive: 13.4%
same,"activity change, negative = inhibition",[5]; at 92.4 µM (top of the series),inactive: -5.8%
same,activation,[7]; [13],inconclusive: -1.19%
same,activation,[7]; at 92.4 µM (top of the series),inactive: 20.8%
same,Potency,[8],inactive
CC(C)NC(=O)N1CC(=O)N(c2cc(Cl)cc(Cl)c2)C1=O,Potency,[1],"inconclusive: 12.9 µM [fluorescent, full curve]"
same,Potency,[2],"inconclusive: 51.3 µM [rising, single point]"
same,Potency,[5]; [12],"inconclusive: 68.6 µM [activator, partial curve, poor fit]"
same,activation,[7]; [13],inconclusive: 15.4%
C=CC(=C)C,Potency,[1],"inconclusive: 45.7 µM [activator, single point]"
same,Potency,[5]; [12],inactive
CC(C)(C)C(=O)C(Oc1ccc(Cl)cc1)n1cncn1 (stereo not drawn),activation,[1],inconclusive: 13%
same,Potency,[4],"inconclusive: 21.1 µM [inhibitor, full curve, poor fit]"
same,Potency,[10],"inconclusive: 24.3 µM [rising, full curve]"
same,Potency,[11],inactive
Nc1cccc(Cl)c1,Potency,[1],inactive
same,Potency,[2],inactive
same,Potency,[7]; [13],inactive
CCCCOC(=O)c1ccccc1C(=O)OCCCC,activation,[1],inconclusive: -1.89%
same,Potency,[5]; [12],inactive
same,activation,[7]; [13],inconclusive: -51.9%
O=CCCl,Potency,[1],"inconclusive: 20.4 µM [fluorescent, partial curve]"
same,Potency,[3],inconclusive: 0.0009 µM [inhibitor]
same,Potency,[7]; [13],inactive
N#CC(c1ccccc1)c1ccccc1,Potency,[1],inactive
same,Potency,[7]; [13],inactive
O=[N+]([O-])c1cccc2cccnc12,activation,[1],inconclusive: 19.1%
same,Potency,[4],inactive
O=c1[nH]c2ccccc2n1CCCN1CCC(n2c(=O)[nH]c3cc(Cl)ccc32)CC1,Potency,[1],"inconclusive: 7.07 µM [rising, partial curve, poor fit]"
same,Potency,[2],"inconclusive: 12.6 µM [rising, partial curve, poor fit]"
same,Potency,[10],"inconclusive: 13.3 µM [fluorescent, partial curve]"
same,activation,[11],inconclusive: 30.5% [at 42.5 µM]
C[C@]12Cc3cn[nH]c3C[C@@H]1CC[C@@H]1[C@@H]2CC[C@@]2(C)[C@H]1CC[C@]2(C)O,Potency,[1],"inconclusive: 25.1 µM [rising, partial curve, poor fit]"
same,Potency,[10],"inconclusive: 29.8 µM [rising, partial curve]"
same,Potency,[5]; [12],"inconclusive: 18.8 µM [activator, partial curve]"
same,activation,[7]; [13],inconclusive: -17.4% [at 42.5 µM]
CC(C)NC(C)C,Potency,[1],"inconclusive: 8.9 µM [fluorescent, full curve]"
same,Potency,[6],inactive
same,Potency,[8],inactive
O=C(O)CC(Cl)C(=O)O (stereo not drawn),Potency,[1],inactive
same,Potency,[3],inactive
same,Potency,[7]; [13],inactive
O=C(CCCCl)c1ccc(F)cc1,Potency,[1],"inconclusive: 15.8 µM [fluorescent, partial curve]"
same,Potency,[2],inactive
same,Potency,[7]; [13],inconclusive: 18.8 µM [inhibitor]
